## Melanoma cell counts after drug treatment

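Human melanoma cell lines in 1,536-well plates were treated with two drugs together for 72 h, then fixed, stained and imaged. Values are the number of DAPI-stained nuclei as a percentage of the DMSO control: 100 is no effect, lower means fewer cells. Every drug was used at one fixed concentration, the higher of two screened. No replicate spread is given; individual values may be noisy.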 This is part of the screen, not chosen by result.

First drug in all entries: pazopanib, 2000 nM, Cc1ccc(Nc2nccc(N(C)c3ccc4c(C)n(C)nc4c3)n2)cc1S(N)(=O)=O

Partner | COLO 829 | C32 | WM451Lu | COLO 792 | WM3619 | COLO 800
O=S(=O)(c1ccccc1)N(CC(F)(F)F)c1ccc(C(O)(C(F)(F)F)C(F)(F)F)cc1 at 7000 nM | 72.5 | 113 | 87.1 | 89.2 | 105 | 98.7
Nc1ccn([C@@H]2O[C@H](CO)[C@@H](O)C2(F)F)c(=O)n1 at 2 nM | 58.3 | 115 | 52.0 | 86.3 | 56.6 | 39.5
COc1ccc(COc2ccc(Cc3cnc(N)nc3N)cc2OC)cc1 at 5000 nM | 76.5 | 91.3 | 84.8 | 103 | 90.7 | 110
CCN(CC)CCNC(=O)c1c(C)[nH]c(/C=C2\C(=O)Nc3ccc(F)cc32)c1C at 2000 nM | 132 | 85.8 | 63.7 | 50.2 | 85.9 | 66.3
COc1cc(N2CCC(N3CCN(C)CC3)CC2)ccc1Nc1ncc(Cl)c(Nc2ccccc2S(=O)(=O)C(C)C)n1 at 400 nM | 88.0 | 88.9 | 74.0 | 74.7 | 75.2 | 129
NC(=O)c1ccc(N(C(N)=O)c2c(F)cccc2F)nc1-c1ccc(F)cc1F at 2000 nM | 91.7 | 92.2 | 99.9 | 91.6 | 94.2 | 42.0
Oc1nc(-c2ccc(C(F)(F)F)cc2)nc2c1CSCC2 at 10000 nM | 110 | 97.1 | 85.6 | 81.2 | 73.1 | 79.4
CCCS(=O)(=O)Nc1ccc(F)c(C(=O)c2c[nH]c3ncc(Cl)cc23)c1F at 400 nM | 102 | 93.0 | 83.3 | 91.4 | 80.0 | 64.9
COC(=O)c1sccc1S(=O)(=O)Nc1ccc(Nc2ccccc2)cc1OC at 5000 nM | 87.2 | 85.0 | 96.2 | 79.7 | 79.0 | 70.9
COc1ccc(-c2ccc3c(N4CCOCC4)nc(N4C[C@@H](C)O[C@@H](C)C4)nc3n2)cc1CO at 100 nM | 94.3 | 98.6 | 84.3 | 71.1 | 64.2 | 111
COc1ccc2c(c1)CCC1C2CCC2(C)C(NCCCCCCN3C(=O)C=CC3=O)CCC12 (stereo unspecified) at 2000 nM | 85.7 | 85.9 | 104 | 100 | 90.0 | 103
C[C@@H](N)c1ccc(C(=O)Nc2ccnc3[nH]ccc23)cc1 at 2000 nM | 86.3 | 88.1 | 85.5 | 61.3 | 76.0 | 104
C[As](C)SC[C@H](NC(=O)CC[C@H](N)C(=O)O)C(=O)NCC(=O)O at 2000 nM | 69.9 | 102 | 69.1 | 65.2 | 82.7 | 62.9
Cc1cc(Nc2cc(N3CCN(C)CC3)nc(/C=C/c3ccccc3)n2)n[nH]1 at 200 nM | 71.2 | 81.8 | 68.5 | 84.2 | 67.9 | 83.2
C=CCNC1=C2C[C@@H](C)C[C@H](OC)[C@H](O)[C@@H](C)/C=C(\C)[C@H](OC(N)=O)[C@@H](OC)/C=C\C=C(/C)C(=O)NC(=CC1=O)C2=O at 10 nM | 78.3 | 20.2 | 65.7 | 77.7 | 77.3 | 123
O=C(Nc1cccc(Cl)c1)Nc1ncc(CCNc2ncnc3ccsc23)s1 at 4 nM | 76.9 | 83.6 | 59.1 | 36.0 | 49.4 | 39.2

Once more, the final 2:

{"partner": "C=CCNC1=C2C[C@@H](C)C[C@H](OC)[C@H](O)[C@@H](C)/C=C(\\C)[C@H](OC(N)=O)[C@@H](OC)/C=C\\C=C(/C)C(=O)NC(=CC1=O)C2=O at 10 nM", "COLO 829": 78.3, "C32": 20.2, "WM451Lu": 65.7, "COLO 792": 77.7, "WM3619": 77.3, "COLO 800": 123}
{"partner": "O=C(Nc1cccc(Cl)c1)Nc1ncc(CCNc2ncnc3ccsc23)s1 at 4 nM", "COLO 829": 76.9, "C32": 83.6, "WM451Lu": 59.1, "COLO 792": 36.0, "WM3619": 49.4, "COLO 800": 39.2}

Data from the primary screen of doi:10.1371/journal.pone.0140310, rounded.